Results are given in words; binding and its absence hold for the method and conditions named. Binding seen in cells or lysates may run through a third protein. Some entries that bind do so weakly or less than the wild type.

Chains of the proteins cited; added tags and fusions are not shown.
UniProt Q61025: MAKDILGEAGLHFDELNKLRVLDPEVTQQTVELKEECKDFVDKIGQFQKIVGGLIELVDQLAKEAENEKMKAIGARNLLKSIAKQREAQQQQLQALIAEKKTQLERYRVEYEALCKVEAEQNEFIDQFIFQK

In PMC10437088 one finds binding data, which are given here for two molecules.

This assay addresses T1, CABCOCO1 as used in the co-IP experiments of Supplementary Fig. 8A, B and D (mouse) (UniProt Q8CDT7).
T1 sequence: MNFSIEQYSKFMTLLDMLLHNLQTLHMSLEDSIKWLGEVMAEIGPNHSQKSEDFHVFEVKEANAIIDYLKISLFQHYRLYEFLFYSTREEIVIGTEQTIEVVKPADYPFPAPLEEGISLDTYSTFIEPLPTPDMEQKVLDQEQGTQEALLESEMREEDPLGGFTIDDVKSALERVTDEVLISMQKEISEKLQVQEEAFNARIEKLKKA
Description: co-IP; co-IP experiments of Supplementary Fig. 8A, B and D; cells or tissue and tags not given.

As to “IFT20 as used in the co-IP experiment of Supplementary Fig. 8D (from UniProt Q61025 1-132)”, the binding result is “binds”.

B1: radial spoke head 1 homolog (RSPH1) (protein, UniProt Q8VIG3 1-301)
chain: MSDLGSEELEEEGENDLGEYEGERNEVGERHGHGKARLPNGDTYEGSYEFGKRHGQGTYKFKNGARYTGDYVKNKKHGQGTFIYPDGSRYEGEWADDQRHGQGVYYYVNNDTYTGEWFNHQRHGQGTYLYAETGSKYVGTWVHGQQEGAAELIHLNHRYQGKFMNKNPVGPGKYVFDIGCEQHGEYRLTDTERGEEEEEEETLVNIVPKWKALNITELALWTPTLSEEQPPPEGQGQEEPQGLTGVGDPSEDIQAEGFEGELEPRGADEDVDTFRQESQENSYDIDQGNLNFDEEPSDLQD
Take B1: the binding result is given as “binds”.
